Results: PubChem BioAssay AID1487 (National Center for Advancing Translational Sciences (NCATS), 2009)
Several values for one entry are separate records, joined by “and”; a condition that tells them apart may be missing. Identical values can stand only once. Some of the results follow. The main result of the screen is listed elsewhere. These columns were measured beside it and carry no call. Compounds called inactive in the main read-out are mostly missing here. Words in brackets tell the shape of the fitted curve; partial curves, single points and poor fits give uncertain potencies.

Test: qHTS Assay for Modulators of Lamin A Splicing
Settings: HeLa LMNA splicing GFP/RFP minigene ratio, 48 h
How it was run: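 Read-out is the ratio of GFP to DsRed2 object intensity, acquired by 488 nm laser-scanning cytometry on HeLa lamin A-EGFP minigene reporter cells. Compound incubation 48 hrs at 37 °C in Opti-MEM with 2% FBS; DMSO 0.5% final.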

[1] = measured here: GFP splicing reporter channel
[2] = measured here: RFP viability control channel

Structure (SMILES): CNc1sc(C(=O)c2cccs2)c(N)c1-c1nc2ccccc2s1
- AC50 [1]: 12.6 µM [rising, partial curve]
- AC50 [2]: 15.8 µM [rising, single point]

Structure (SMILES): O=C(O)CCC(=O)c1ccc(-c2ccccc2)cc1
- AC50 [1]: 1.12 µM [falling, partial curve, poor fit]
- AC50 [2]: 282 nM [falling, single point] and 891 nM [falling, full curve, poor fit]

Structure (SMILES): COC(=O)C1=C(C(=O)OC)[C@@H]2Nc3ccccc3[C@@]23C[C@@H](C(=O)OC)N(C(C)=O)C3=N1
- AC50 [2]: 0.355 µM [falling, single point]

Structure (SMILES): Cc1noc(NS(=O)(=O)c2ccc(NC(=O)C34CC5CC(C3)CC(n3cnc(Cl)n3)(C5)C4)cc2)c1C
- AC50 [1]: 0.398 µM [falling, full curve, poor fit]

Structure (SMILES): O=C(CCc1nc(-c2cccs2)no1)Nc1ccc([N+](=O)[O-])cc1
- AC50 [1]: 10 µM [rising, partial curve]
- AC50 [2]: 12.6 µM [rising, single point]

Structure (SMILES): CC(C)c1ccc(/C=C/C(=O)Nc2nncs2)cc1
- AC50 [1]: 15.8 µM [rising, partial curve, poor fit]
- AC50 [2]: 17.8 µM [rising, single point]

Structure (SMILES): O=C(N/N=C/c1ccc([N+](=O)[O-])s1)c1ccncc1
- AC50 [2]: 20 µM [falling, single point]

Structure (SMILES): COc1ccc(CNC(=O)C(=O)NCC(c2cccs2)S(=O)(=O)c2cccs2)cc1 (stereo unspecified)
- AC50 [1]: 0.00447 µM [falling, full curve, poor fit]

Structure (SMILES): COc1ccccc1N1CCN(C(=O)Cn2nc3n(C)c4ccccc4n3c(=O)c2=O)CC1
- AC50 [1]: 0.0141 µM [falling, full curve, poor fit]

Structure (SMILES): COc1ccc(-n2nnnc2-c2nc3ccccc3s2)cc1
- AC50 [2]: 22.4 µM [rising, partial curve, poor fit]

Structure (SMILES): CC1CCN(C(=S)NC(=O)c2cccs2)CC1
- AC50 [1]: 7.94 µM [rising, partial curve]
- AC50 [2]: 3.55 µM [rising, single point]

Structure (SMILES): COc1ccc(/C=C/C(=O)O)cc1
- AC50 [1]: 0.794 µM [falling, full curve, poor fit]

Structure (SMILES): O=C(Cc1ccc(Cl)cc1)Nc1ccc(-c2cc3ccccc3oc2=O)c(Cl)c1
- AC50 [1]: 35.5 µM [falling, single point]

Structure (SMILES): Cc1nc2ccc(NC(=S)NC3CCCCC3)cc2nc1C
- AC50 [1]: 6.31 µM [falling, partial curve]

Structure (SMILES): COC(=O)c1cc(NC(=O)C2CC(=O)NC(=NCc3ccc(OC)cc3)S2)cc(C(=O)OC)c1 (stereo unspecified)
- AC50 [1]: 2 µM [rising, partial curve]

Structure (SMILES): Cc1ccc(C(=O)N/C(=C\c2ccc(-c3ccc(Cl)cc3)o2)C(=O)NCCCN(C)C)cc1
- AC50 [2]: 35.5 µM [falling, single point]

Structure (SMILES): Cc1ccc(NC(=S)NCc2cccn2C)cc1
- AC50 [1]: 25.1 µM [rising, single point]
- AC50 [2]: 35.5 µM [rising, single point]

Structure (SMILES): S=C(NCc1ccc(Cl)cc1Cl)Nc1ccccc1
- AC50 [1]: 20 µM [rising, single point]

Structure (SMILES): Cc1cc(C(=O)NCc2ccccc2)c2c(C)nn(-c3cccc(Cl)c3C)c2n1
- AC50 [1]: 11.2 µM [rising, partial curve]
- AC50 [2]: 7.94 µM [rising, partial curve, poor fit]

Structure (SMILES): CCOC(=O)N1CCN(C(=O)CSCC(=O)Nc2nc(-c3ccc(Cl)s3)cs2)CC1
- AC50 [1]: 11.2 µM [rising, partial curve]
- AC50 [2]: 12.6 µM [rising, partial curve]

Structure (SMILES): COc1ccc(-n2nnnc2SCC(=O)NCCc2ccc(OC)c(OC)c2)cc1
- AC50 [1]: 35.5 µM [rising, single point]
- AC50 [2]: 35.5 µM [rising, single point]

Structure (SMILES): Cc1ccc(NC(=O)CN(c2ccc(C)cc2)S(=O)(=O)c2cccc3nonc23)cc1
- AC50 [1]: 15.8 µM [rising, single point]
- AC50 [2]: 20 µM [rising, single point]

Structure (SMILES): CCOC(=O)c1c(C)[nH]c(C(=O)Nc2ccc(C)c(Cl)c2)c1C
- AC50 [1]: 35.5 µM [rising, single point]
- AC50 [2]: 35.5 µM [rising, single point]

Structure (SMILES): CN(C)C(=O)/C(=C\c1cccc(Oc2ccccc2)c1)NC(=O)c1ccccc1
- AC50 [2]: 31.6 µM [rising, single point]

Structure (SMILES): CCC(C)C(=O)Nc1nc(C)c(-c2csc(Nc3cc(Cl)ccc3OC)n2)s1 (stereo unspecified)
- AC50 [1]: 2.51 µM [rising, full curve, poor fit]
- AC50 [2]: 15.8 µM [rising, partial curve]

Structure (SMILES): Cc1c(C(=O)N2CCOCC2)oc2ccc(S(=O)(=O)N3CCCCCC3)cc12
- AC50 [1]: 12.6 µM [rising, partial curve, poor fit]
- AC50 [2]: 20 µM [rising, single point]

Structure (SMILES): O=S(=O)(c1ccc(F)cc1)c1snnc1-c1ccccc1
- AC50 [1]: 5.62 µM [falling, full curve, poor fit]
- AC50 [2]: 12.6 µM [falling, partial curve]

Structure (SMILES): Cc1nc(-c2ccc(C)c(S(=O)(=O)N3CCC(C(=O)NCc4ccc(F)cc4)CC3)c2)no1
- AC50 [2]: 4.47 µM [rising, single point]

Structure (SMILES): COc1ccc(OC)c(NC(=O)CC2SC(=Nc3ccccc3)N(CCc3ccccn3)C2=O)c1 (stereo unspecified)
- AC50 [2]: 3.98 µM [rising, full curve]

Structure (SMILES): COc1ccc(C)cc1NC(=O)c1nnn(CCc2ccccc2)c1N
- AC50 [2]: 0.141 µM [rising, full curve, poor fit]

Structure (SMILES): CCCCc1ncc(/C=C(\Cc2cccs2)C(=O)O)n1Cc1ccc(C(=O)O)cc1
- AC50 [1]: 0.501 µM [falling, single point]

Structure (SMILES): NC(=O)/C=C\c1cn(-c2ccccc2)nc1-c1ccc2c(c1)OCCO2
- AC50 [1]: 1.12 µM [rising, partial curve]
- AC50 [2]: 22.4 µM [rising, partial curve, poor fit]

Structure (SMILES): O=C(Nc1ccc2oc(-c3cccnc3)nc2c1)c1cc2ccccc2o1
- AC50 [1]: 0.178 µM [rising, full curve, poor fit]

Structure (SMILES): N#Cc1cc(C(=O)c2cc(Cl)ccc2O)cn(-c2ccccc2)c1=O
- AC50 [2]: 10 µM [rising, partial curve]

Structure (SMILES): Cc1cc(SCC(=O)Nc2ncc(Cl)cc2Cl)nc2ccccc12
- AC50 [2]: 22.4 µM [rising, partial curve]

Structure (SMILES): Cc1cc(C(=O)CCl)c(C)n1CCc1ccccc1
- AC50 [1]: 5.62 µM [rising, single point]

Structure (SMILES): CC(=O)c1cccc(N2C(=O)CN(S(C)(=O)=O)CC2(C)C(=O)NC2CCCC2)c1 (stereo unspecified)
- AC50 [1]: 39.8 µM [rising, partial curve, poor fit]

Structure (SMILES): Cc1ccc(C)c2[nH]c(=O)c(CN(CCN3CCCC3)C(=O)Nc3cccc(Cl)c3)cc12
- AC50 [2]: 14.1 µM [rising, single point]

Structure (SMILES): CCCCCCC(=O)N(O)C1CC(=O)N(c2ccc(C)cc2)C1=O (stereo unspecified)
- AC50 [2]: 14.1 µM [rising, single point]

Structure (SMILES): CCCCCCc1cc2cc(S(=O)(=O)c3ccc(F)cc3)c(=O)oc2cc1O
- AC50 [2]: 12.6 µM [rising, partial curve]

Structure (SMILES): CCN(CC)Cc1c[nH]c2c(C(=O)OC)cccc12
- AC50 [1]: 0.0891 µM [falling, full curve, poor fit]
- AC50 [2]: 0.158 µM [falling, full curve, poor fit]

Structure (SMILES): Cc1cc2ncn(CC(O)COC3CCCCC3)c2cc1C (stereo unspecified)
- AC50 [2]: 12.6 µM [rising, single point]

Structure (SMILES): COc1ccc(-c2nnn(CC(=O)N(CC(=O)NCCC(C)C)c3ccccc3)n2)cc1OC
- AC50 [1]: 22.4 µM [rising, single point]

Structure (SMILES): Cc1ccc2c(c1)c(C)c(C)n2CC(O)Cn1nnc2ccccc21 (stereo unspecified)
- AC50 [1]: 22.4 µM [rising, single point]
- AC50 [2]: 35.5 µM [rising, single point]

Structure (SMILES): COc1cc(NC(=O)c2cc(Cl)nnc2Cl)cc(OC)c1OC
- AC50 [2]: 15.8 µM [rising, single point]

Structure (SMILES): OCCN1CCN(CCC=C2c3ccccc3Sc3ccc(Cl)cc32)CC1
- AC50 [1]: 1.26 µM [falling, full curve]
- AC50 [2]: 1.12 µM [falling, full curve]

Structure (SMILES): CCOC(=O)c1[nH]c(C)c(CCC(=O)Nc2cc(Cl)c(OC)cc2OC)c1C
- AC50 [1]: 0.501 µM [rising, full curve]
- AC50 [2]: 1.26 µM [rising, full curve]

Structure (SMILES): Cn1c(-c2ccccc2)c(C=O)c2ccccc21
- AC50 [1]: 28.2 µM [falling, partial curve, poor fit]
- AC50 [2]: 39.8 µM [falling, partial curve, poor fit]

Structure (SMILES): Cc1ccc(S(=O)(=O)c2c(N)n(Cc3ccco3)c3nc4ccccc4nc23)cc1C
- AC50 [1]: 3.55 µM [falling, full curve, poor fit]
- AC50 [2]: 3.98 µM [falling, single point]

Structure (SMILES): C/C(=N\NC(=O)COc1ccc(C(C)(C)C)cc1)c1ccccc1
- AC50 [2]: 22.4 µM [rising, single point]

Structure (SMILES): CCCCC(=O)OCC(=O)[C@]1(O)Cc2c(O)c3c(c(O)c2[C@H](OC2CC(NC(=O)C(F)(F)F)C(O)C(C)O2)C1)C(=O)c1c(OC)cccc1C3=O (stereo partly specified)
- AC50 [1]: 0.2 µM [rising, full curve, poor fit]
- AC50 [2]: 0.316 µM [rising, full curve]

Structure (SMILES): O=C(Nc1ccc(Br)cc1)c1ccc(N2C(=O)C3CC=CCC3C2=O)cc1 (stereo unspecified)
- AC50 [1]: 5.62 µM [rising, partial curve]

Structure (SMILES): COc1ccc(/C=C/C(=O)c2cc3cccc(OC)c3oc2=O)cc1
- AC50 [1]: 35.5 µM [falling, single point]
- AC50 [2]: 22.4 µM [falling, single point]
